A short description of the test: qHTS Assay for Lipid Storage Modulators in Drosophila S3 Cells.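 On cell number change: cells counted by Cell Tracker Red CMTPX staining in the red channel.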 The conditions noted are these: BODIPY lipid droplet fluorescence, 18-24 h; for cell number change: measured here: cell count max response, cells fed with added oleic acid. The essentials: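 Drosophila S3 cells loaded with oleic acid (400 uM, as added) and compounds at several concentrations; lipid droplets imaged by 488-nm laser-scanning cytometry, 500–530 nm intensity and object ratio to cell channel. Percent activity normalized to 20 uM Triacsin C.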
Background: qHTS replaces the single test concentration by a dilution series.

The mark [1] stands for this setting: measured here: lipid fluorescence (Fed channel) AC50, cells fed with added oleic acid.
Setting [2] is: measured here: cell number channel AC50, cells fed with added oleic acid.

This is one part of the list. Further columns of the screen follow, without active or inactive calls. Compounds called inactive in the main read-out are mostly missing here. Words in brackets tell the shape of the fitted curve; partial curves, single points and poor fits give uncertain potencies.

`Cc1ccc(-c2cc(N)n(-c3ccc(F)cc3)n2)cc1`: the cell number change stood at 25.2%.

As a reminder, the AC50 is the concentration giving half of the maximal activity seen. The low end stands for greater potency, the high end for weaker potency. Take `CC1(C)CC(NS(=O)(=O)c2ccc(S(=O)(=O)N3CCOCC3)cc2)CCO1` (stereo not given): the cell number change was found to be 0.612%. In addition, the AC50 under setting [1] was 0.0517 µM [falling, full curve, poor fit].

Consider `CN(C)C(=S)SCC(=O)NCc1ccc(F)cc1`, for which the cell number change was determined as 16.1%. For the same compound, under setting [2], the AC50 was 2.31 µM [falling, partial curve].

`C(=N\N=C\c1cccnc1)/c1cccnc1`: the cell number change was 47.4%. For the same compound, the AC50 under setting [2] was 2.91 µM [rising, full curve]. Moreover, the AC50 under setting [1] was 10.3 µM [rising, single point].

In the case of `Cc1c(C(=O)NCC2CCCO2)oc2ccccc12` (stereo not given), the cell number change was -40.5%. In addition, the AC50 under setting [2] was 18.4 µM [falling, partial curve, poor fit]. For the same compound, the AC50 under setting [1] was 29.1 µM [falling, single point].

On to `Cc1ccc(C(=O)N/C(=C\c2cccs2)C(=O)NC2CCCCC2)cc1`, for which the cell number change came out at 66.1%. Besides, under setting [2], the AC50 is 29.1 µM [rising, single point].

Take `Cc1nc(C)n(CC(O)COc2ccc3ccccc3c2)n1` (stereo not given): the cell number change is -3.48%. In addition, under setting [1], the AC50 is 1.16 µM [rising, single point].

`CCCS(=O)(=O)N1CCCC(C(=O)N2CCN(c3ccccc3)CC2)C1` (stereo not given): the cell number change is -20.7%.

Consider `CC1(C)CC(N2CCN(Cc3ccccc3)CC2)=CC(=[N+]2CCCCC2)C1`, for which the cell number change was -20.4%. Further, the AC50 under setting [1] is 13 µM [falling, partial curve].

In the case of `c1ccc(-c2ccc(OCCN3CCOCC3)cc2)cc1`, the cell number change was found to be 21.3%. Besides, the AC50 under setting [1] was 29.1 µM [rising, single point].

For `O=S(=O)(Nc1nc2ccccc2nc1Nc1ccc2c(c1)OCCO2)c1cccs1`, the cell number change came out at 5.7%.

As to `CCN1C(=O)C2C(C1=O)N1C(c3cccs3)C3C(=O)N(CC)C(=O)C3N1C2c1cccs1` (stereo not given), the cell number change is 24.4%.

In the case of `CC(C)n1nnc2c(=O)oc3ccccc3c21`, the cell number change was 126%. Further, under setting [2], the AC50 was 8.2 µM [rising, partial curve]. Also, under setting [1], the AC50 is 6.51 µM [rising, partial curve].

Turning to `O=C(Nc1ccc2c(c1)OCCO2)c1cnccn1`, the cell number change worked out at 31.3%. Further, the AC50 under setting [2] is 16.4 µM [rising, single point]. Further, the AC50 under setting [1] is 29.1 µM [rising, single point].

Consider `Cc1cccc(C(=O)Nc2nc(C)c(C(=O)Nc3ccc4c(c3)CCC4)s2)c1`, for which the cell number change is -21.3%.

On to `CC(C)CCN1CCN=C1N(C)C`, for which the cell number change was -19.9%. In addition, under setting [1], the AC50 is 1.3 µM [falling, full curve].

Turning to `Cc1onc(-c2ccccc2)c1-c1nnc(COC(=O)c2ccc(O)cc2)o1`, the cell number change was -35.1%. Also, the AC50 under setting [2] is 29.1 µM [falling, single point]. Besides, under setting [1], the AC50 was 1.84 µM [falling, partial curve, poor fit].

As for `CCC(=C(c1ccc(OC)cc1)c1ccc(OC)cc1)c1cn(CC(O)CN(CCO)CCO)c2ccccc12` (stereo not given), the cell number change is -45.1%. Further, the half-maximal activity concentration (AC50) under setting [2] was 29.1 µM [falling, single point].

With `O=C(Nc1ccc(F)cc1)C1CCN(S(=O)(=O)c2ccc3[nH]c(=O)oc3c2)CC1`, the cell number change is -3.99%. Besides, the AC50 under setting [2] was 2.06 µM [rising, partial curve, poor fit].

Consider `CCn1c(C(O)c2ccc3c(c2)OCO3)nc2ccccc21` (stereo not given), for which the cell number change was -29.3%. Also, the AC50 under setting [1] is 6.51 µM [falling, single point].

Turning to `O=C(Nc1ccc(N2CCN(Cc3ccccc3F)CC2)cc1)c1ccc([N+](=O)[O-])o1`, the cell number change is -17.7%. The AC50 under setting [1] is 9.2 µM [falling, partial curve].

As for `CC(C)CCSc1cc(NCCO)c([N+](=O)[O-])c2nonc12`, the AC50 under setting [2] was 7.31 µM [falling, single point].

Turning to `C=CCN1C(=O)C(Cc2ccccc2Cl)SC1=Nc1ccc(C(=O)O)cc1` (stereo not given), the cell number change is -9.18%. For the same compound, the AC50 under setting [1] was 0.58 µM [falling, single point].

Consider `CC(=O)NC(C)(C)C1CC=C(C)/C(=N\O)C1` (stereo not given), for which the cell number change is -54.1%. The AC50 under setting [2] was 0.461 µM [falling, full curve]. Also, the AC50 under setting [1] was 4.11 µM [falling, full curve].

Take `O=C(COC(=O)/C=C/c1ccc(F)cc1)NCc1ccco1`: the cell number change is -23.4%.

As for `CCOc1ccccc1N(CC(=O)NC1CCCCC1)S(C)(=O)=O`, the cell number change is -12.2%.

As for `CCOc1ccc(CCNC(=O)C2CC(C)=CCC2C(=O)O)cc1OCC` (stereo not given), the cell number change is -24.3%.

Turning to `O=C(Nc1ccccc1N1CCCC1)c1cc(Cl)ccc1Cl`, the cell number change is -47.5%. In addition, under setting [2], the AC50 was 32.6 µM [falling, single point]. Under setting [1], the half-maximal activity concentration (AC50) was 29.1 µM [falling, single point].

`Cc1[nH][nH]c(=O)c1C(c1ccc(-c2ccc(Cl)cc2Cl)o1)c1c(C)[nH][nH]c1=O`: the cell number change was found to be 5.06%. Moreover, under setting [1], the half-maximal activity concentration (AC50) was 0.517 µM [falling, single point].

For `CC(CCc1ccccc1)NC(=O)C1CCCN(C(=O)c2cc3sccc3n2C)C1` (stereo not given), the cell number change was -18.3%.

As for `CCC(C)(C#CCN1CCCCC1)OC(C)=O` (stereo not given), the cell number change was determined as 36.4%. For the same compound, the concentration at half-maximal activity (AC50) under setting [2] was 18.4 µM [rising, partial curve, poor fit]. For the same compound, the half-maximal activity concentration (AC50) under setting [1] is 32.6 µM [rising, single point].

Consider `Cc1ccc(S(=O)(=O)N2CCC(C(=O)Nc3ccc(N4CCOCC4)cc3)CC2)cc1C`, for which the cell number change was -31.7%. Further, the AC50 under setting [2] was 4.61 µM [falling, full curve, poor fit].

Regarding `CCCCNC(=O)C1CCCNC1=O` (stereo not given), the cell number change was -0.104%.

For `Cc1ccc(-n2ncc3c(N4CCCC(C)C4)ncnc32)c(C)c1` (stereo not given), the cell number change is -14.8%. Besides, the AC50 under setting [1] was 0.146 µM [rising, full curve, poor fit].

As for `Cc1ccc([N+](=O)[O-])c2c1C(N1CC(C)OC(C)C1)C(C)(C)O2` (stereo not given), the cell number change stood at 4.78%.

With `O=C(Nc1ccc(Cl)cc1)N1CCSCC1`, the cell number change was -3.58%. Under setting [1], the AC50 is 1.84 µM [falling, full curve, poor fit].

Regarding `O=C(COc1ccc2c(-c3ccccc3)cc(=O)oc2c1)Nc1ccc(CN2CCOCC2)cc1`, the cell number change is 17.6%. Moreover, the AC50 under setting [1] was 6.51 µM [rising, single point].

For the compound `O=C(NC1CCC(NC(=O)C2CCCO2)CC1)C1CCCO1` (stereo not given), the cell number change stood at 9.06%. The AC50 under setting [1] was 29.1 µM [falling, single point].

`CC(=O)N(CN1C(=O)c2ccccc2C1=O)c1ccc2c(c1)oc1ccccc12`: the cell number change is -27.4%. The AC50 under setting [2] was 0.651 µM [falling, full curve, poor fit]. Besides, under setting [1], the half-maximal activity concentration (AC50) was 0.0206 µM [falling, full curve, poor fit].

For the compound `Cc1cccnc1NC(=O)Nc1ccc(Cl)cc1`, the cell number change is -2.19%.

In the case of `COc1ccc(-c2noc(-c3cc(Cl)ccc3Cl)n2)cc1OC`, the AC50 was 0.651 µM [rising, partial curve] under setting [2] and 0.651 µM [rising, partial curve] under setting [1].

Take `CC(=O)/C(=N\Nc1ccccc1)Oc1ccc([N+](=O)[O-])cc1`: the cell number change is -56.9%. Also, the AC50 under setting [2] was 29.1 µM [falling, single point].

As for `Cc1nn(-c2ccccc2)c2c1C1(C(=O)N3c4c(cccc41)C(C)CC3(C)C)C(C#N)=C(N)O2` (stereo not given), the cell number change is -43.1%.

As to `CCCn1c(/C=N/Nc2nc3ccccc3[nH]2)nc2ccccc21`, under setting [1], the half-maximal activity concentration (AC50) is 16.4 µM [falling, single point].

As for `COc1ccc(Cc2nnc(NS(=O)(=O)c3ccc(Cl)cc3)s2)cc1OC`, the cell number change was 22.1%. In addition, under setting [1], the concentration at half-maximal activity (AC50) is 25.9 µM [rising, partial curve].

On to `COc1ccccc1OCC(=O)Nc1nonc1NC(=O)COc1ccccc1OC`, for which the cell number change is -6.69%. Under setting [1], the concentration at half-maximal activity (AC50) is 2.59 µM [falling, single point].

In the case of `CCCCc1cc(=O)oc2cc(OCC(=O)NC3CCN(Cc4ccccc4)CC3)ccc12`, the cell number change was -17%.

In the case of `Cc1ccc(OCC(=O)NC(C)c2ccccc2)cc1C` (stereo not given), the cell number change was 0.787%.

In the case of `Cn1c(=O)[nH]c(=O)c2c1nc([N+](=O)[O-])n2Cc1ccccc1`, the cell number change is -65.9%. Moreover, under setting [2], the AC50 is 9.2 µM [falling, partial curve]. The AC50 under setting [1] is 8.2 µM [falling, partial curve].

Take `N#CCC(=O)c1sccc1-n1cccc1`: the cell number change is -34.9%. Further, under setting [2], the AC50 is 11.6 µM [falling, single point]. For the same compound, the AC50 under setting [1] was 14.6 µM [falling, partial curve].

Take `CC(C)N=C1SC(CC(=O)Nc2ccccc2)C(=O)N1C(C)C` (stereo not given): the cell number change is -39.6%. Moreover, under setting [2], the AC50 is 32.6 µM [falling, single point]. For the same compound, under setting [1], the AC50 is 1.84 µM [falling, partial curve].

In the case of `Cc1c(C)c2ccc(OCc3ccc(C(=O)O)o3)c(C)c2oc1=O`, the cell number change turned out to be 96.7%. The half-maximal activity concentration (AC50) under setting [2] was 16.4 µM [rising, single point].

Take `C/C(=N\Nc1ccc2nncn2n1)c1ccccn1`: the cell number change was -24.3%. Also, under setting [1], the AC50 is 9.2 µM [falling, partial curve, poor fit].

As to `COc1ccc(-c2csc3ncnc(N4CCN(c5ccccc5O)CC4)c23)cc1`, the cell number change was -2.7%.

With `O=c1cc(-c2ccccc2Cl)oc2c([N+](=O)[O-])c(O)cc(O)c12`, the cell number change was -12.5%. In addition, the AC50 under setting [1] is 20.6 µM [rising, single point].

For `Cc1ccc(S(=O)(=O)N2CCN(C(=O)CC(C)n3nc(C)c(Cl)c3C)CC2)cc1C` (stereo not given), the cell number change is -6.08%. For the same compound, the AC50 under setting [1] is 29.1 µM [rising, single point].

Take `O=C(CN1CCCC1)Nc1c(Cl)cccc1Cl`: the cell number change came to 9.84%. Moreover, the concentration at half-maximal activity (AC50) under setting [1] was 4.11 µM [rising, single point].

For `Cc1cc(=O)n2nc(N3CCCC(C(=O)NCCCN4CCc5ccccc5C4)C3)sc2n1` (stereo not given), the cell number change was found to be 10.1%. Also, the AC50 under setting [1] was 16.4 µM [rising, single point].

With `Cc1ccccc1-c1nnc(SCc2ccccc2)o1`, the cell number change is -24.1%. Further, the AC50 under setting [1] is 1.64 µM [rising, partial curve, poor fit].

As to `C=CCn1nnnc1SCC(=O)Nc1cccc(C(F)(F)F)c1`, the cell number change worked out at 17.3%.

For `CCN(C(=O)Cn1cnc2ccccc2c1=O)C1CCS(=O)(=O)C1` (stereo not given), the cell number change is -30.9%. The AC50 under setting [2] was 2.06 µM [falling, full curve]. The AC50 under setting [1] was 1.84 µM [falling, full curve].

Take `COC(=O)c1ccc2c(=O)[nH]c(CN3c4ccccc4CC3C)nc2c1` (stereo not given): the cell number change stood at 0.0126%. Also, under setting [2], the AC50 was 1.3 µM [rising, partial curve].

In the case of `C/C(=N/NC(=O)c1ccc(Br)o1)c1cccc(NC(=O)c2ccc(C)o2)c1`, the cell number change stood at 7.28%. Further, the AC50 under setting [1] is 0.058 µM [rising, full curve, poor fit].

For the origin of these results see PubChem BioAssay AID2685 (National Center for Advancing Translational Sciences (NCATS), 2010).
